Our source for the binding values is PMC7890977.

These are yes or no findings as the source states them, for the method shown. In cells and extracts the contact can be indirect.

The assay has as its target T1, Syntaxin 6, endogenous in HEK-APP cells (human (endogenous in HEK293)) (UniProt O43752).
T1 sequence: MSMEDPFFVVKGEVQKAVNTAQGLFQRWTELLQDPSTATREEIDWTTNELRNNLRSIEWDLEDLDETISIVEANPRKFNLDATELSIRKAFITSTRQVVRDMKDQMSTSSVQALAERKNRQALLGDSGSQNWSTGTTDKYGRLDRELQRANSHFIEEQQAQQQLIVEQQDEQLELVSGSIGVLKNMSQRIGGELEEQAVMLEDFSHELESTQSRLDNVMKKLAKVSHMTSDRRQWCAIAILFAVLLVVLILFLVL
The experiment in a line: co-IP; 100 μg protein extract of HEK-APP cells (lysis buffer 25 mM Tris HCl pH 7.5, 150 mM NaCl, 0.5% Triton X-100); 1 μg mAb anti-CERTL (3A1-C1), anti-Aβ/APP 6E10 or anti-syntaxin 6 (isotype control), 1 h at room temperature; immune complexes brought down with anti-mouse secondary antibodies; Western blot with 6E10 and rabbit pAb anti-CERTs.

Regarding “Human amyloid precursor protein, APP695 isoform”, the binding entry is listed as “no binding”.
